Laboratory results reported in patent US12077555B2, “STAT degraders and uses thereof” (Kymera Therapeutics, Inc., priority 2019, dated 2024).

The chains behind the UniProt entries cited, without tags or fusion partners.
UniProt P40763, whole entry: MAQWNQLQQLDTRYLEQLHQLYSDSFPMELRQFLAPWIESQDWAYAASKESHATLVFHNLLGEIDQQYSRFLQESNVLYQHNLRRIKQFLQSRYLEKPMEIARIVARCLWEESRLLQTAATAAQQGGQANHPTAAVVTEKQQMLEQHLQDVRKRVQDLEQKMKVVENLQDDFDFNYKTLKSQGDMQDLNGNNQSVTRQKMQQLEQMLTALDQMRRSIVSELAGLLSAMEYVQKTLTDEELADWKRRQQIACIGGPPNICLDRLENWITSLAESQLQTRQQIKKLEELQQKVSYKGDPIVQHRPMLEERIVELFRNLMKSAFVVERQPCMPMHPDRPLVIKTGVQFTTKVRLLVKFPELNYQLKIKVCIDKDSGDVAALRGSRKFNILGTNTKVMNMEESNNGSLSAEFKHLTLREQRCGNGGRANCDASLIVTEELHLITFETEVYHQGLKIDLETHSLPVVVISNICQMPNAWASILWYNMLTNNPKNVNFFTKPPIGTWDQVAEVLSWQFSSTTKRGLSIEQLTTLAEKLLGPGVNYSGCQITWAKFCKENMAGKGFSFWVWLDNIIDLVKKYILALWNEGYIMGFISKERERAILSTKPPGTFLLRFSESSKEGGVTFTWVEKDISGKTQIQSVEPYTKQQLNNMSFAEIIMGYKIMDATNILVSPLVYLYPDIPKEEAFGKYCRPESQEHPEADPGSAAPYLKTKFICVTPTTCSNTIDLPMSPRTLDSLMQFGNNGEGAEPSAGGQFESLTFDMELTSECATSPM

Experiments:
[1] = time course of proliferation (FIG. 7B)
Procedure: (§1) FIG. 7 depicts the decrease in STAT3 observed at 24 hours treatment with I-103 (A), the time-dependent inhibition of proliferation with I-103 (B), the increase in activated Caspase 3 at 48 hours that leads to cell death with I-103 treatment (C), and increase in subG1 cells observed with I-103 treatment (D).

[2] = subG1 cells (FIG. 7D)
Procedure: as §1

[3] = test system: MOLM-16 cells; test: CellTiter-Glo cell viability, MOLM-16; details: MOLM-16, FIG. 5B
Procedure: Compound-mediated viability effect on MOLM-16 and SU-HDL-1 cells was quantitatively determined using the CellTiter-Glo® Luminescent Cell Viability Assay kit from Promega (Catalog number G7572) following manufacturer's recommended procedures.
Day 0: 60 nL of compounds/DMSO were stamped to the cell plate as on the recommended platemap. Compound precipitation was observed. Cells were centrifuged at 800 rpm for 5 min, suspended with culture medium, and counted with Countess (Invitrogen). The cell density was adjusted to the recommend concentration. 30 μL of cell solution (2000 cells/well) was added to the assay plate according to the platemap. 30 μL of media was added to column 2 and column 23 as on the platemap. The final concentration of the compounds except for the reference compound Paclitaxel was from 10 μM, 3-fold dilution and 11 dose (Paclitaxel started at 500 nM). […]
Day 4: The assay plate was equilibrated to RT for ˜10 minutes. […] To determine cell viability, 30 μL of CellTiter Glo reagent was added to each well and the assay plate was centrifuged at 1000 rpm for 30 second, incubated at room temperature for 10 min, and analyzed by detecting the luminescence using a multimode plate reader (EnVision 2105, PerkinElmer). The data was then analyzed by software Prism 7.0 from GraphPad and the dose response curves were fit using a three-parameter logistic equation to calculate EC50.

[4] = test system: SU-DHL-1 cells; test: Wash-out study in SU-DHL-1 cells; details: 1 uM compound for 24 and 48 hr, then wash-out; FIGS. 10 and 18
Procedure: I-103 and I-174 were tested in the wash-out protocol.
• Seed cell suspension in T75 flasks and treat with 0.1% DMSO and 1 uM compound for 24 and 48 hr. Day 0 • Collect cell suspension from the flasks in conical tubes after 24 and 48 hr, spin down at 1,000 rpm for 5 min. • Remove supernatant. Wash with PBS, spin down at 1,000 rpm for 5 min, repeat PBS wash one more time. • Seed the cells at 2,000 cells per well in 384-well plates for growth inhibition measurement via CellTiterGlo (CTG) and 10,000 cells per well in 96-well plates for STAT3 levels via MSD. • Measure T0 for CTG and collect pellets to measure levels of STAT3 by MSD Day 1-4 • Measure CTG every day for 4 days post wash-out. • Collect pellets and measure levels of STAT3 by MSD every day for 4 days post wash-out. Growth inhibition was normalized to T0 and graphed as % control.

[5] = test system: STAT3-mediated gene expression (SOCS3, PD-L1); test: RT-qPCR of STAT3, SOCS3 and PDL-1 mRNA levels in SU-DHL-1 cells; details: FIG. 15, tested form: diammonium
Procedure: FIG. 5. Includes graphical images and tables showing the results of RT-qPCR in SU-DHL-1 cells at 24 hours (A) with mRNA levels (% control) over I-103 concentration (nM)(x-axis) for STAT3, SOCS3, and PDL-1 genes and CellTiterGlo (CTG) cell viability at 4 days (B) with growth inhibition (% control) over I-103 concentration (nM)(x-axis) for MOLM-16 and SU-DHL-1 cell lines. Also shown are the results of MSD degradation DC50 (nM) in MOLM-16 and SU-DHL-1 cell lines at 24 hours.
FIG. 15 depicts dose response curves and IC50 results showing I-174 and I-94 repression of STAT3-mediated gene expression in of SOCS3 and PD-L1 in SU-DHL-1 cells.

[6] = test system: ALK+ALCL cell lines; test: growth inhibition in multiple ALK+ALCL cell lines; details: dose response curves, FIG. 16; tested form: diammonium
Excerpt: FIG. 16 depicts dose response curves showing I-174 and I-94 mediated growth inhibition in multiple ALK+ALCL cell lines.

[7] = target: STAT3 (Homo sapiens, UniProt P40763); test: Live cell degradation kinetics in A549 HiBiT cells; details: FIG. 3A, FIG. 21, tested form: diammonium
Procedure: 700,000 A549 HiBiT cells were seeded in 60 mm dish and rested overnight at 37° C. Cells were transfected with LgBiT vector comprising 6.5 μg plasmid DNA+19.5 μL FuGENE HD transfection reagent per 60 mm dish (scale up/down as necessary). Following 24 h post transfection, cells were trypsinized and seeded at 2,000 cells/well in 40 μL in a 384-well plate. Cells were not seeded in the 2 outermost columns/rows to avoid evaporation. Outer wells were filled with PBS. After allowing the cells to settle overnight, Endurazine 1:100 was added to the cells by first diluting 1:10 in media and further diluting 1:10 in 40 μL of cells by adding ˜4.4 μL of diluted Endurazine in plate #1. Cells were incubated at 37° C. for 2.5 h. Compound was added with Tecan HPd300 dispenser (final DMSO=0.1%) to both plates (10 point, 1:3 dilution; 30 μM top dose). Plate #1 luminescence was read at t=0, 30 min, 1h, 2h, 4h, 6h, 8h, 16h, 24 h, 48h. Plate was returned to incubator between reads.

## Cn1c(=O)n(C2CCC(=O)NC2=O)c2ccc(CCCCCCC(=O)N3CC[C@H]4CC[C@@H](C(=O)N[C@@H](CCC(N)=O)C(=O)NC(c5ccccc5)c5ccccc5)N4C(=O)[C@@H](NC(=O)c4cc5cc(C(=O)P(=O)(O)O)ccc5[nH]4)C3)cc21 (stereo partly shown)
[1]
  proliferation: time-dependent inhibition of proliferation
[2]
  subG1 cells: increase in subG1 cells
[3]
  cell proliferation: inhibits
[4]
  viability of SU-DHL-1 cells after wash-out: profound effects on the viability of SU-DHL-1 cells

## Cc1ncsc1-c1ccc([C@H](C)NC(=O)[C@@H]2C[C@@H](O)CN2C(=O)[C@@H](NC(=O)CCCCc2ccc(CO[C@H](C)[C@H](CCC(N)=O)NC(=O)[C@@H]3Cc4cccc5c4N3C(=O)[C@@H](NC(=O)c3cc4cc(C(=O)P(=O)(O)O)ccc4[nH]3)CC5)cc2)C(C)(C)C)cc1 [Compound I-227]
[5]
  STAT3-mediated gene expression of SOCS3 and PD-L1: repression of STAT3-mediated gene expression
[6]
  growth inhibition in multiple ALK+ALCL cell lines: mediated growth inhibition
[7]
  degradation of STAT3, live cell kinetics: rapid and potent degradation of STAT3

The structures given here were assigned with low confidence; some may be wrong.
